Source: patent US20260042731A1, “(2,4-DICHLOROPHENOXY)ACETIC ACID ANALOGS” (CORTEVA AGRISCIENCE LLC, priority 2022, published 2026)
Several values for one entry are separate records, joined by “and”; a condition that tells them apart may be missing. Equal values may be shown once. At least one read-out could not be matched to a standard name with certainty.

Key:
Experiment in all cases: Greenhouse post-emergence mixture trials, percent visual control
Type in all cases: in vivo
Tall Waterhemp (AMATA) = system: Tall Waterhemp (AMATA)
Corn (ZEAMX) = system: Corn (ZEAMX)
Velvetleaf (ABUTH) = system: Velvetleaf (ABUTH)
Horseweed (ERICA) = conditions: 21 DAA
[1] = system: Common Lambsquarters (CHEAL); conditions: 21 DAA
[2] = 21 DAA, compound 560 g ae/ha + Sulfentrazone 130 g ai/ha, Trial Bridge 3
[3] = 21 DAA, compound 560 g ae/ha + Sulfentrazone 347 g ai/ha, Trial Bridge 3
[4] = 21 DAA, compound 560 g ae/ha, no mixing partner, Trial Bridge 3
[5] = 21 DAA, compound 1120 g ae/ha, no mixing partner, Trial Bridge 3
[6] = Trial Bridge 1, 21 DAA, compound 1120 g ae/ha + Glufosinate 600 g ai or ae/ha
[7] = Trial Bridge 1, 21 DAA, compound 1120 g ae/ha + Glyphosate 1120 g ai or ae/ha
[8] = Trial Bridge 2, 21 DAA, compound 560 g ae/ha, no mixing partner
[9] = Trial Bridge 2, 21 DAA, compound 1120 g ae/ha + Trifludimoxazin 12.5 g ai or ae/ha
[10] = Trial Bridge 2, 21 DAA, compound 1120 g ae/ha, no mixing partner
[11] = Trial Bridge 2, compound 560 g ae/ha, no mixing partner
[12] = Trial Bridge 2, compound 1120 g ae/ha, no mixing partner
[13] = Trial Bridge 3, compound 560 g ae/ha, no mixing partner
[14] = Trial Bridge 3, compound 1120 g ae/ha, no mixing partner

O=C(COc1ccc(Cl)cc1Cl)NNC(=O)c1ccccc1 [Compound D10]
% Control (Tall Waterhemp (AMATA); [2]): 100%
% Control (Tall Waterhemp (AMATA); [3]): 100%
% Control (Tall Waterhemp (AMATA); [4]): 100% and 99%
% Control (Tall Waterhemp (AMATA); 21 DAA, compound 1120 g ae/ha + Sulfentrazone 130 g ai/ha, Trial Bridge 3): 100%
% Control (Tall Waterhemp (AMATA); 21 DAA, compound 1120 g ae/ha + Sulfentrazone 347 g ai/ha, Trial Bridge 3): 100%
% Control (Tall Waterhemp (AMATA); [5]): 100%
% Control (Tall Waterhemp (AMATA); Trial Bridge 1, 21 DAA, compound 560 g ae/ha + Arylex 5 g ai or ae/ha): 100% and 80%
% Control (Tall Waterhemp (AMATA); Trial Bridge 1, 21 DAA, compound 560 g ae/ha + Glufosinate 600 g ai or ae/ha): 100%
% Control (Tall Waterhemp (AMATA); Trial Bridge 1, 21 DAA, compound 560 g ae/ha + Glyphosate 1120 g ai or ae/ha): 100%
% Control (Tall Waterhemp (AMATA); Trial Bridge 1, 21 DAA, compound 560 g ae/ha + Mesotrione 150 g ai or ae/ha): 100%
% Control (Tall Waterhemp (AMATA); Trial Bridge 1, 21 DAA, compound 560 g ae/ha + diclosulam 35 g ai or ae/ha): 100%
% Control (Tall Waterhemp (AMATA); Trial Bridge 1, 21 DAA, compound 560 g ae/ha, mixing partner none): 100%
% Control (Tall Waterhemp (AMATA); Trial Bridge 1, 21 DAA, compound 1120 g ae/ha + Arylex 5 g ai or ae/ha): 100%
% Control (Tall Waterhemp (AMATA); [6]): 100% and 99%
% Control (Tall Waterhemp (AMATA); [7]): 100% and 97%
% Control (Tall Waterhemp (AMATA); Trial Bridge 1, 21 DAA, compound 1120 g ae/ha + Mesotrione 150 g ai or ae/ha): 100%
% Control (Tall Waterhemp (AMATA); Trial Bridge 1, 21 DAA, compound 1120 g ae/ha + diclosulam 35 g ai or ae/ha): 100% and 85%
% Control (Tall Waterhemp (AMATA); Trial Bridge 1, 21 DAA, compound 1120 g ae/ha, mixing partner none): 100%
% Control (Tall Waterhemp (AMATA); Trial Bridge 2, 21 DAA, compound 560 g ae/ha + Saflufenacil 25 g ai or ae/ha): 100%
% Control (Tall Waterhemp (AMATA); Trial Bridge 2, 21 DAA, compound 560 g ae/ha + Saflufenacil 75 g ai or ae/ha): 100%
% Control (Tall Waterhemp (AMATA); Trial Bridge 2, 21 DAA, compound 560 g ae/ha + Trifludimoxazin 12.5 g ai or ae/ha): 100%
% Control (Tall Waterhemp (AMATA); Trial Bridge 2, 21 DAA, compound 560 g ae/ha + Trifludimoxazin 50 g ai or ae/ha): 100%
% Control (Tall Waterhemp (AMATA); [8]): 100% and 85%
% Control (Tall Waterhemp (AMATA); Trial Bridge 2, 21 DAA, compound 1120 g ae/ha + Saflufenacil 25 g ai or ae/ha): 100%
% Control (Tall Waterhemp (AMATA); Trial Bridge 2, 21 DAA, compound 1120 g ae/ha + Saflufenacil 75 g ai or ae/ha): 100%
% Control (Tall Waterhemp (AMATA); [9]): 100%
% Control (Tall Waterhemp (AMATA); Trial Bridge 2, 21 DAA, compound 1120 g ae/ha + Trifludimoxazin 50 g ai or ae/ha): 100%
% Control (Tall Waterhemp (AMATA); [10]): 100%
% Control (Corn (ZEAMX); 21 DAA, compound 560 g ae/ha + Sulfentrazone 347 g ai or ae/ha, Trial Bridge 3): 40% and 50%
% Control (Corn (ZEAMX); [4]): 10%
% Control (Corn (ZEAMX); 21 DAA, compound 1120 g ae/ha + Sulfentrazone 130 g ai or ae/ha, Trial Bridge 3): 50% and 60% and 70%
% Control (Corn (ZEAMX); 21 DAA, compound 1120 g ae/ha + Sulfentrazone 347 g ai or ae/ha, Trial Bridge 3): 65% and 55%
% Control (Corn (ZEAMX); [5]): 5% and 15%
% Control (Corn (ZEAMX); [7]): 75% and 70%
% Control (Corn (ZEAMX); Trial Bridge 1, compound 560 g ae/ha + Arylex 5 g ai or ae/ha, 21 DAA, single replicate): 5% (2×) and 10%
% Control (Corn (ZEAMX); Trial Bridge 1, compound 560 g ae/ha + Mesotrione 150 g ai or ae/ha, 21 DAA, single replicate): 5% (2×) and 10%
% Control (Corn (ZEAMX); Trial Bridge 1, compound 560 g ae/ha + diclosulam 35 g ai or ae/ha, 21 DAA, single replicate): 50% and 65% (2×)
% Control (Corn (ZEAMX); Trial Bridge 1, compound 560 g ae/ha, no mixing partner, 21 DAA, single replicate): 5% (2×) and 0%
% Control (Corn (ZEAMX); Trial Bridge 1, compound 1120 g ae/ha + Arylex 5 g ai or ae/ha, 21 DAA, single replicate): 10% and 0% and 20%
% Control (Corn (ZEAMX); Trial Bridge 1, compound 1120 g ae/ha + Mesotrione 150 g ai or ae/ha, 21 DAA, single replicate): 5% and 15% and 10%
% Control (Corn (ZEAMX); Trial Bridge 1, compound 1120 g ae/ha + diclosulam 35 g ai or ae/ha, 21 DAA, single replicate): 50% and 65% and 60%
% Control (Corn (ZEAMX); Trial Bridge 2, compound 560 g ae/ha + Trifludimoxazin 50 g ai or ae/ha, 21 DAA): 15% and 10% and 20%
% Control (Corn (ZEAMX); Trial Bridge 2, compound 1120 g ae/ha + Saflufenacil 75 g ai or ae/ha, 21 DAA): 50% and 40% and 35%
% Control (Corn (ZEAMX); Trial Bridge 2, compound 1120 g ae/ha + Trifludimoxazin 12.5 g ai or ae/ha, 21 DAA): 15% and 10%
% Control (Corn (ZEAMX); Trial Bridge 2, compound 1120 g ae/ha + Trifludimoxazin 50 g ai or ae/ha, 21 DAA): 30% and 15% and 25%
% Control (Velvetleaf (ABUTH); [2]): 99% and 100%
% Control (Velvetleaf (ABUTH); [3]): 90% and 99%
% Control (Velvetleaf (ABUTH); [4]): 90% and 97%
% Control (Velvetleaf (ABUTH); [5]): 97% and 99%
% Control (Velvetleaf (ABUTH); [6]): 100% and 99%
% Control (Velvetleaf (ABUTH); Trial Bridge 1 Trt 2, D10 560 g ae/ha, no mixing partner, 21 DAA): 100%
% Control (Velvetleaf (ABUTH); [8]): 99%
% Control (Velvetleaf (ABUTH); [9]): 99% and 100%
% Control (Velvetleaf (ABUTH); [10]): 99%
% Control (Horseweed (ERICA); Trial Bridge 2, compound 560 g ae/ha + Saflufenacil 25 g ai or ae/ha): 100%
% Control (Horseweed (ERICA); Trial Bridge 2, compound 560 g ae/ha + Saflufenacil 75 g ai or ae/ha): 100%
% Control (Horseweed (ERICA); Trial Bridge 2, compound 560 g ae/ha + Trifludimoxazin 12.5 g ai or ae/ha): 95% and 98%
% Control (Horseweed (ERICA); Trial Bridge 2, compound 560 g ae/ha + Trifludimoxazin 50 g ai or ae/ha): 90% and 98%
% Control (Horseweed (ERICA); [11]): 85%
% Control (Horseweed (ERICA); Trial Bridge 2, compound 1120 g ae/ha + Saflufenacil 25 g ai or ae/ha): 100% and 88%
% Control (Horseweed (ERICA); Trial Bridge 2, compound 1120 g ae/ha + Saflufenacil 75 g ai or ae/ha): 100%
% Control (Horseweed (ERICA); Trial Bridge 2, compound 1120 g ae/ha + Trifludimoxazin 12.5 g ai or ae/ha): 95% and 97%
% Control (Horseweed (ERICA); Trial Bridge 2, compound 1120 g ae/ha + Trifludimoxazin 50 g ai or ae/ha): 85% and 90%
% Control (Horseweed (ERICA); [12]): 95%
% Control (Horseweed (ERICA); Trial Bridge 1, compound 560 g ae/ha + Arylex 5 g ai or ae/ha, single replicate): 90%
% Control (Horseweed (ERICA); Trial Bridge 1, compound 560 g ae/ha + Glufosinate 600 g ai or ae/ha, single replicate): 100%
% Control (Horseweed (ERICA); Trial Bridge 1, compound 560 g ae/ha + Glyphosate 1120 g ai or ae/ha, single replicate): 99% and 100%
% Control (Horseweed (ERICA); Trial Bridge 1, compound 560 g ae/ha + Mesotrione 150 g ai or ae/ha, single replicate): 100% (2×) and 98%
% Control (Horseweed (ERICA); Trial Bridge 1, compound 560 g ae/ha + diclosulam 35 g ai or ae/ha, single replicate): 100% (2×) and 95%
% Control (Horseweed (ERICA); Trial Bridge 1, compound 560 g ae/ha, no mixing partner, single replicate): 95% and 85% and 90%
% Control (Horseweed (ERICA); Trial Bridge 1, compound 1120 g ae/ha + Arylex 5 g ai or ae/ha, single replicate): 95% (2×) and 90%
% Control (Horseweed (ERICA); Trial Bridge 1, compound 1120 g ae/ha + Glufosinate 600 g ai or ae/ha, single replicate): 100%
% Control (Horseweed (ERICA); Trial Bridge 1, compound 1120 g ae/ha + Glyphosate 1120 g ai or ae/ha, single replicate): 75% and 100%
% Control (Horseweed (ERICA); Trial Bridge 1, compound 1120 g ae/ha + Mesotrione 150 g ai or ae/ha, single replicate): 100%
% Control (Horseweed (ERICA); Trial Bridge 1, compound 1120 g ae/ha + diclosulam 35 g ai or ae/ha, single replicate): 100%
% Control (Horseweed (ERICA); Trial Bridge 1, compound 1120 g ae/ha, no mixing partner, single replicate): 98% and 90% (2×)
% Control (Horseweed (ERICA); Trial Bridge 3, compound 560 g ae/ha + Sulfentrazone 130 g ai/ha): 85% and 80% and 90%
% Control (Horseweed (ERICA); Trial Bridge 3, compound 560 g ae/ha + Sulfentrazone 347 g ai/ha): 90% and 97% and 98%
% Control (Horseweed (ERICA); [13]): 80% and 95%
% Control (Horseweed (ERICA); Trial Bridge 3, compound 1120 g ae/ha + Sulfentrazone 130 g ai/ha): 90% and 95%
% Control (Horseweed (ERICA); Trial Bridge 3, compound 1120 g ae/ha + Sulfentrazone 347 g ai/ha): 95% and 97% and 98%
% Control (Horseweed (ERICA); [14]): 75% and 90% and 95%
% Control [1, 11]: 100%
% Control [1, 12]: 92% and 100%
% Control ([1]; Trial Bridge 1, compound 560 g ae/ha + Arylex 5 g ai or ae/ha): 95% and 97% and 100%
% Control ([1]; Trial Bridge 1, compound 560 g ae/ha + Glyphosate 1120 g ai or ae/ha): 98% and 95%
% Control ([1]; Trial Bridge 1, compound 560 g ae/ha + diclosulam 35 g ai or ae/ha): 95% and 100% and 98%
% Control ([1]; Trial Bridge 1, compound 560 g ae/ha, no mixing partner): 100% and 97%
% Control ([1]; Trial Bridge 1, compound 1120 g ae/ha + Glufosinate 600 g ai or ae/ha): 100% and 85%
% Control ([1]; Trial Bridge 1, compound 1120 g ae/ha + Glyphosate 1120 g ai or ae/ha): 98% and 97%
% Control ([1]; Trial Bridge 1, compound 1120 g ae/ha + diclosulam 35 g ai or ae/ha): 99% and 100% and 95%
% Control [1, 13]: 100%
% Control [1, 14]: 97%
